Experiment in all cases: pull-down
For series [1], the system named is hnRNP X. The note with it: PNA strand, Cys-Bpa at N-term, Lys-amide at C-term, disulfide to TP10; protein in cells.
Series [2] has as its target Nucleolin (UniProt P13383). To be noted: PNA strand, Cys-Bpa at N-term, Lys-amide at C-term, disulfide to TP10; protein in cells.
Series [3] has as its target T1, spliceosome associated protein 145 (SAP145) (UniProt D3ZMS1).
T1 sequence (looked up, limits assumed): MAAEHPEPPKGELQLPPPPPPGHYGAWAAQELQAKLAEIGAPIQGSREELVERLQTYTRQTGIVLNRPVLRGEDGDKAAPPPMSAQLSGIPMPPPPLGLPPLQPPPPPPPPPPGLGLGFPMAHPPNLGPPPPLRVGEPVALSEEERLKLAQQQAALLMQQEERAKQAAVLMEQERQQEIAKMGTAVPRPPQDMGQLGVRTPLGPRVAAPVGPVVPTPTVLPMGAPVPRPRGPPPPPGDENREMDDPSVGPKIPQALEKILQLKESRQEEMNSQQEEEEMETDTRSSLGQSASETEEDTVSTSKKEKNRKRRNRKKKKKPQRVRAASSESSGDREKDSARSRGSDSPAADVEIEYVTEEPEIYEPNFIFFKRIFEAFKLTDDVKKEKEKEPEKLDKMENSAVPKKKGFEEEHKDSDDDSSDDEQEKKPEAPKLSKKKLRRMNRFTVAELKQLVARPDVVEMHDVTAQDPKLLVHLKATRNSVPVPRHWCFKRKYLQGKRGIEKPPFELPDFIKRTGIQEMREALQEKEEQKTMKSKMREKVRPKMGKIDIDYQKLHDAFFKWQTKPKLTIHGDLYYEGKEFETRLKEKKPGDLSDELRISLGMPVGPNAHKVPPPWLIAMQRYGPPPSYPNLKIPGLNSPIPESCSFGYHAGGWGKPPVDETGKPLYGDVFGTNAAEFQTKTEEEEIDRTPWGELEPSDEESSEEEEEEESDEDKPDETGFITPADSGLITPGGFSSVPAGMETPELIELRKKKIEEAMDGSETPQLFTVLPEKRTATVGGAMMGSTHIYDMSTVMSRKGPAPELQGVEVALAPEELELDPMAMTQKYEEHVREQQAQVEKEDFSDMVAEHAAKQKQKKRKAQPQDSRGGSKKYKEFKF
To be noted: PNA strand, Cys-Bpa at N-term, Lys-amide at C-term, disulfide to TP10; protein in cells.

Sequences of proteins named here, by UniProt entry; tags and fusion partners are left off. A change or cut given only in a name is not applied to a line headed by its entry. Residues count along the entry.
UniProt P13383, whole entry: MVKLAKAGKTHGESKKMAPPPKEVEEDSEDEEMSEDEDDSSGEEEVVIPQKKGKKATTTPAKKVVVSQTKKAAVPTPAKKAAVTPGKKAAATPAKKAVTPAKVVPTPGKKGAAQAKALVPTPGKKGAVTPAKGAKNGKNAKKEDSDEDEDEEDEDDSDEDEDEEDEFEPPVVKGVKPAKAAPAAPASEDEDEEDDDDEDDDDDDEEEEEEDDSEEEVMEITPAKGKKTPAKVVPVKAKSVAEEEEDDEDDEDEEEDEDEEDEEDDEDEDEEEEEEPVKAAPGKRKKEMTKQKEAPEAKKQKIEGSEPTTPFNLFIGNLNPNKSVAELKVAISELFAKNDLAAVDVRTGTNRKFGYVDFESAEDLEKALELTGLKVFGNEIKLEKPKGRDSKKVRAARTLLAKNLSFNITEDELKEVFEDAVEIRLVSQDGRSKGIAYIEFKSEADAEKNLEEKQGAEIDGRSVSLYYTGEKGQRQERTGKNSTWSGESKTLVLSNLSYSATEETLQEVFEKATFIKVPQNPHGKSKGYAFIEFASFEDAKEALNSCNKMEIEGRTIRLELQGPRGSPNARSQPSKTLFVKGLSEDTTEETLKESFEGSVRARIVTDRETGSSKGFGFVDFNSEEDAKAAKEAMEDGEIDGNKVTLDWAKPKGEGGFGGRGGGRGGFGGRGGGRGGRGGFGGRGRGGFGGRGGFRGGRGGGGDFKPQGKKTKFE
UniProt Q6IMY8, 2-798: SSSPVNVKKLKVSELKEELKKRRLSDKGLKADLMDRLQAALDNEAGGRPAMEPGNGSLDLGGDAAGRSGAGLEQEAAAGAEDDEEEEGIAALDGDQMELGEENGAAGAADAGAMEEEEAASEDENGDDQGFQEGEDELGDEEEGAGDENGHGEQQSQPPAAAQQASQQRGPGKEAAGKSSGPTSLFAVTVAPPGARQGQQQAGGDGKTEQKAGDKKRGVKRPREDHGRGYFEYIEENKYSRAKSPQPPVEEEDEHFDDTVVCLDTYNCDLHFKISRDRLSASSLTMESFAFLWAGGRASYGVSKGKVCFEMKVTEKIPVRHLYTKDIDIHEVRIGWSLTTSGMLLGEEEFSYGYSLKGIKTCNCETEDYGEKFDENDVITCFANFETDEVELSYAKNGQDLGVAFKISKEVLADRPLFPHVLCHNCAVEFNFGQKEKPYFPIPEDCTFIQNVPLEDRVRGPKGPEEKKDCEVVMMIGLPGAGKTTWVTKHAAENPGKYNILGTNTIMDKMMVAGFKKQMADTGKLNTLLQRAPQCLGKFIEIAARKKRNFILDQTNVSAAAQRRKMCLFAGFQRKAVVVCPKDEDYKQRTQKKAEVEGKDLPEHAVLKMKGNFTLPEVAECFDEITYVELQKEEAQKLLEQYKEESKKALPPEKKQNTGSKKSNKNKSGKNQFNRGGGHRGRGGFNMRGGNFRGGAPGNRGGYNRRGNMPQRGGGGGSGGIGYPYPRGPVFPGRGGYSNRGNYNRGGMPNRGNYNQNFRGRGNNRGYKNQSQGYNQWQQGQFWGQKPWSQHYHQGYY
UniProt A7VJC2: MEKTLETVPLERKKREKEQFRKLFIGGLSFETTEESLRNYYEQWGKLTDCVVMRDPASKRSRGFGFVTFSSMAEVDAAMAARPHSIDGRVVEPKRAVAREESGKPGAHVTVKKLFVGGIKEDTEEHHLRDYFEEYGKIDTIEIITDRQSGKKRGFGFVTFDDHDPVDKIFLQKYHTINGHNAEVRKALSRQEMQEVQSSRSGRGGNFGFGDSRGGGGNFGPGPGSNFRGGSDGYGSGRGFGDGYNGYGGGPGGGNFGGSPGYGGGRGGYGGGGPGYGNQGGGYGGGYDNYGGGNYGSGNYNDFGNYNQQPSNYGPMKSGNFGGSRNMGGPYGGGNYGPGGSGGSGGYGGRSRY
UniProt F1LQ48: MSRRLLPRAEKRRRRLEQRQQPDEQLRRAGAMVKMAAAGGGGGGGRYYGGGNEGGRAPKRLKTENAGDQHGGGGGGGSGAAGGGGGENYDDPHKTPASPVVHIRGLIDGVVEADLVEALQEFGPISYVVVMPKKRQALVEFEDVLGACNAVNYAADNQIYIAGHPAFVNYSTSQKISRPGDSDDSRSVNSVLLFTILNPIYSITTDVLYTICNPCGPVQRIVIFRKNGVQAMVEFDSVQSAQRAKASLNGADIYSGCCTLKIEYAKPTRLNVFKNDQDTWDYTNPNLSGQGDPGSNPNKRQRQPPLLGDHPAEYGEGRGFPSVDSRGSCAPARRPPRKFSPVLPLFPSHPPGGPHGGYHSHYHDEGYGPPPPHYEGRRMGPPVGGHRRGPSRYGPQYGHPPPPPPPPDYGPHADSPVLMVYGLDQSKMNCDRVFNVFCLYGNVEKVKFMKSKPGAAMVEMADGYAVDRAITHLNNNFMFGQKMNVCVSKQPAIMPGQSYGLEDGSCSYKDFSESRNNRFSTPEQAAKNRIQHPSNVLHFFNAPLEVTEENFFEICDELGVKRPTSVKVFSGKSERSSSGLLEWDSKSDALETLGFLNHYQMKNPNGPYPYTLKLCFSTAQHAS
UniProt Q6URK4: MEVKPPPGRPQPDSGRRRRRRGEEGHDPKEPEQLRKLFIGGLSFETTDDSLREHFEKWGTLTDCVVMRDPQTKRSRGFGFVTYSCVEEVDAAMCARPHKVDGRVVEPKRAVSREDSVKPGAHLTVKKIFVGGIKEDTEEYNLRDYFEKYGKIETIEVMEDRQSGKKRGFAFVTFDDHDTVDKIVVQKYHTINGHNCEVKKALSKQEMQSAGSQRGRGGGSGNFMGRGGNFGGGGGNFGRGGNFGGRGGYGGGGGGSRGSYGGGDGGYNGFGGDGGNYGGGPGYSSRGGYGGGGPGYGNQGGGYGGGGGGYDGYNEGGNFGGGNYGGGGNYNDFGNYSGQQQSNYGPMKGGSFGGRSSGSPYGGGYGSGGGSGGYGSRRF
UniProt P04256: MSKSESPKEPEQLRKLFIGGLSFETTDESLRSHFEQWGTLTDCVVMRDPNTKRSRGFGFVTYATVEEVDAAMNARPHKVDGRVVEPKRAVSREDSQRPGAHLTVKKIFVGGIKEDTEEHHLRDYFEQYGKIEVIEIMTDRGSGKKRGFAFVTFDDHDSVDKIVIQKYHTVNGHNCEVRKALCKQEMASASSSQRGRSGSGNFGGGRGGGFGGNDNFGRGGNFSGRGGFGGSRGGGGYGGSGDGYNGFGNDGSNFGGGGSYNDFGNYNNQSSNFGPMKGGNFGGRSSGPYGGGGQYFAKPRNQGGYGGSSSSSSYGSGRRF
UniProt Q3SWU0: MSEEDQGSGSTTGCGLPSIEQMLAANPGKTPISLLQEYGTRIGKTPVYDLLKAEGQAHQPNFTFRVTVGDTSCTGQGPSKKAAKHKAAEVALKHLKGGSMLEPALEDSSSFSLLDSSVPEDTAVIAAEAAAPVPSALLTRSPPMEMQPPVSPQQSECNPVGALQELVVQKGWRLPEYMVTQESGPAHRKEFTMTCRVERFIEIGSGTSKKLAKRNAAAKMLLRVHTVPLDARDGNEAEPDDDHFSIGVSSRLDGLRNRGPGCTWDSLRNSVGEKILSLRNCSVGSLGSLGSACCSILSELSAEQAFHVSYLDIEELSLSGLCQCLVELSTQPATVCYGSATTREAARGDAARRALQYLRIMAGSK

Series [4] concerns the target hnRNP U (UniProt Q6IMY8). To be noted: PNA strand, Cys-Bpa at N-term, Lys-amide at C-term, disulfide to TP10, protein in cells.
Series [5] addresses hnRNP A2/B1 (UniProt A7VJC2). The note with it: PNA strand, Cys-Bpa at N-term, Lys-amide at C-term, disulfide to TP10; protein in cells.
Series [6] deals with T2, pre-mRNA splicing factor 75 (UniProt G3V798).
T2 sequence (looked up, limits assumed): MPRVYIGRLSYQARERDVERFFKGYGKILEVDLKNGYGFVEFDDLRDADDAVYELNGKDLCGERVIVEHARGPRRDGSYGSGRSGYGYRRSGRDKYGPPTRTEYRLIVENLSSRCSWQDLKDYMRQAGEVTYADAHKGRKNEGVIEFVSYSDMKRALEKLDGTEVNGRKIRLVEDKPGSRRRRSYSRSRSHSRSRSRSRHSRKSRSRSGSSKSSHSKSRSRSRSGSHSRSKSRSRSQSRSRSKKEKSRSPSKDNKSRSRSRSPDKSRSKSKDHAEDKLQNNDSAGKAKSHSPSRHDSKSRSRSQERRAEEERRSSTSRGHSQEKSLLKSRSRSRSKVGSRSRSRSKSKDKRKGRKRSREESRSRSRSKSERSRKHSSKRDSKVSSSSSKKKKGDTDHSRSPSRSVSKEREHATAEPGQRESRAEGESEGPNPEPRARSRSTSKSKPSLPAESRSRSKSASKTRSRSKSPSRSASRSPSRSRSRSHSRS
The note with it: PNA strand, Cys-Bpa at N-term, Lys-amide at C-term, disulfide to TP10; protein in cells.

The target of series [7] is hsp90-b (UniProt P34058). To be noted: PNA strand, Cys-Bpa at N-term, Lys-amide at C-term, disulfide to TP10; protein in cells.
In series [8] the test system is hsp82. The note with it: PNA strand, Cys-Bpa at N-term, Lys-amide at C-term, disulfide to TP10; protein in cells.
Series [9] deals with T3, MARTA 1 (UniProt Q99PF5).
T3 sequence (looked up, limits assumed): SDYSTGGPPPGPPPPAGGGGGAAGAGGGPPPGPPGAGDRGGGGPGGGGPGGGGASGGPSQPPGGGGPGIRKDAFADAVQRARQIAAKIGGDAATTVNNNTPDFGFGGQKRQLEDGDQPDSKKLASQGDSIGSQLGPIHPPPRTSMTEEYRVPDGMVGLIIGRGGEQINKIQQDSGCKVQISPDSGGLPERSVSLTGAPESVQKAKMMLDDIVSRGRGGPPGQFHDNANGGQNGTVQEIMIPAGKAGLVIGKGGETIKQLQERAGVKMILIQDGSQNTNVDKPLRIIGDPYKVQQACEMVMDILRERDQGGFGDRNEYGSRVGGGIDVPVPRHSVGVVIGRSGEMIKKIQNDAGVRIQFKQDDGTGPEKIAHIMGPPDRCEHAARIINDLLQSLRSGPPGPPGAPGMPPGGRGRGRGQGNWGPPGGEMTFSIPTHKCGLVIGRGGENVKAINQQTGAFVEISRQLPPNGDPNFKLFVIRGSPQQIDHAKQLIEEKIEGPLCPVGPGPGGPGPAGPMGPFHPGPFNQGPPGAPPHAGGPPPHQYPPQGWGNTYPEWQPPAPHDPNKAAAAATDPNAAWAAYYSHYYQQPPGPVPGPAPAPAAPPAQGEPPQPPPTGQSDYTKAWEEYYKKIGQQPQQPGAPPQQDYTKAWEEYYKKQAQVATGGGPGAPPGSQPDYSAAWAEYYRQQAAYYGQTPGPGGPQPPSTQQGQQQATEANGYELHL
To be noted: PNA strand, Cys-Bpa at N-term, Lys-amide at C-term, disulfide to TP10; protein in cells.

Series [10] concerns hscognate 90. To be noted: PNA strand, Cys-Bpa at N-term, Lys-amide at C-term, disulfide to TP10; protein in cells.
Series [11] deals with hsp70. The note with it: PNA strand, Cys-Bpa at N-term, Lys-amide at C-term, disulfide to TP10; protein in cells.
For series [12], the target named is PTB-associated splicing factor (PSF) (UniProt Q4KM71). The note with it: PNA strand, Cys-Bpa at N-term, Lys-amide at C-term, disulfide to TP10; protein in cells.
Series [13] deals with hnRNP L (UniProt F1LQ48). The note with it: PNA strand, Cys-Bpa at N-term, Lys-amide at C-term, disulfide to TP10; protein in cells.
For series [14], the target named is hsp71 (UniProt P63018). The note with it: PNA strand, Cys-Bpa at N-term, Lys-amide at C-term, disulfide to TP10; protein in cells.
In series [15] the target is hnRNP A3 (UniProt Q6URK4). To be noted: PNA strand, Cys-Bpa at N-term, Lys-amide at C-term, disulfide to TP10; protein in cells.
The target of series [16] is T4, RBP Fus (pigpen) (UniProt Q5PQK2).
T4 sequence (looked up, limits assumed): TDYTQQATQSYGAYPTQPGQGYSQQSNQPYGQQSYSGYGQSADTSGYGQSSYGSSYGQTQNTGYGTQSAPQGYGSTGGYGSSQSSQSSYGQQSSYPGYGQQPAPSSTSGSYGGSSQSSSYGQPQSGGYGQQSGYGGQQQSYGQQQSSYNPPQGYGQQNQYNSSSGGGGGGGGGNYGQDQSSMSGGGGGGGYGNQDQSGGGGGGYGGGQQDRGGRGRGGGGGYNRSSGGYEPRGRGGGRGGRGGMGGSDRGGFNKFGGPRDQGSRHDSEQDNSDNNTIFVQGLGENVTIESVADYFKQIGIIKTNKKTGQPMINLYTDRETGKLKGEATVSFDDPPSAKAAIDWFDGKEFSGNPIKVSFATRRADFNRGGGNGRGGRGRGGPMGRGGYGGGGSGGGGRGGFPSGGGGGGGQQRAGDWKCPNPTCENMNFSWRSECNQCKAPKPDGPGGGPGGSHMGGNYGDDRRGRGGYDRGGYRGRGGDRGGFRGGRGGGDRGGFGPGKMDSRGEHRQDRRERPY
To be noted: PNA strand, Cys-Bpa at N-term, Lys-amide at C-term, disulfide to TP10; protein in cells.

Series [17] has as its target hnRNP A1 (UniProt P04256). To be noted: PNA strand, Cys-Bpa at N-term, Lys-amide at C-term, disulfide to TP10; protein in cells.
In series [18] the target is hnRNP K (UniProt P61980). To be noted: PNA strand, Cys-Bpa at N-term, Lys-amide at C-term, disulfide to TP10, protein in cells.
Series [19] deals with hspHPTG. To be noted: PNA strand, Cys-Bpa at N-term, Lys-amide at C-term, disulfide to TP10; protein in cells.
Series [20] addresses TAR RBP (UniProt Q3SWU0). To be noted: PNA strand, Cys-Bpa at N-term, Lys-amide at C-term, disulfide to TP10; protein in cells.
Series [21] relates to U5snRNP. The note with it: PNA strand, Cys-Bpa at N-term, Lys-amide at C-term, disulfide to TP10; protein in cells.
In series [22] the target is T5, SAP 114 (UniProt D3ZQM0).
T5 sequence (looked up, limits assumed): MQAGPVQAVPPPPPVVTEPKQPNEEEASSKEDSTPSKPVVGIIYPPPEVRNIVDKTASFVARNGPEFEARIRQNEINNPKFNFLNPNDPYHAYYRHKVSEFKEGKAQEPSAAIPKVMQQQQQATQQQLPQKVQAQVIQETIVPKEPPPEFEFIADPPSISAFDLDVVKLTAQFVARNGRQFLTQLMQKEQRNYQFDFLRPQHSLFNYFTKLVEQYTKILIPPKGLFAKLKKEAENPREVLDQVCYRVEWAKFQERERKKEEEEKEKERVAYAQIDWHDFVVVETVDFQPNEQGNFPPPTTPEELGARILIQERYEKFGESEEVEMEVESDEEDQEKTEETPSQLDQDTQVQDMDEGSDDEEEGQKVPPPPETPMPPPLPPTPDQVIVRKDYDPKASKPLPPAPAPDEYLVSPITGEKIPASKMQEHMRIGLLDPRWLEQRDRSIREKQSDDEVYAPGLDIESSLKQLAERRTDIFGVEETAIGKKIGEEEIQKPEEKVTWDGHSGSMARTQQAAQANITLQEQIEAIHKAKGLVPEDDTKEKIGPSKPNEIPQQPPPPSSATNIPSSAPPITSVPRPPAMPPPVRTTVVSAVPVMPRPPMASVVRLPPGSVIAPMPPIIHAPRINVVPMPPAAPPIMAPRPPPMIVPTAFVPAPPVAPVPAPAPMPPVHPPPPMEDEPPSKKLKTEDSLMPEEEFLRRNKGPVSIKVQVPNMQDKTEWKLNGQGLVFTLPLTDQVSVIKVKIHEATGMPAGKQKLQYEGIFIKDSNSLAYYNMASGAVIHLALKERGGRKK
To be noted: PNA strand, Cys-Bpa at N-term, Lys-amide at C-term, disulfide to TP10; protein in cells.

The target of series [23] is T6, hnRNP R (UniProt Q566E4).
T6 sequence (looked up, limits assumed): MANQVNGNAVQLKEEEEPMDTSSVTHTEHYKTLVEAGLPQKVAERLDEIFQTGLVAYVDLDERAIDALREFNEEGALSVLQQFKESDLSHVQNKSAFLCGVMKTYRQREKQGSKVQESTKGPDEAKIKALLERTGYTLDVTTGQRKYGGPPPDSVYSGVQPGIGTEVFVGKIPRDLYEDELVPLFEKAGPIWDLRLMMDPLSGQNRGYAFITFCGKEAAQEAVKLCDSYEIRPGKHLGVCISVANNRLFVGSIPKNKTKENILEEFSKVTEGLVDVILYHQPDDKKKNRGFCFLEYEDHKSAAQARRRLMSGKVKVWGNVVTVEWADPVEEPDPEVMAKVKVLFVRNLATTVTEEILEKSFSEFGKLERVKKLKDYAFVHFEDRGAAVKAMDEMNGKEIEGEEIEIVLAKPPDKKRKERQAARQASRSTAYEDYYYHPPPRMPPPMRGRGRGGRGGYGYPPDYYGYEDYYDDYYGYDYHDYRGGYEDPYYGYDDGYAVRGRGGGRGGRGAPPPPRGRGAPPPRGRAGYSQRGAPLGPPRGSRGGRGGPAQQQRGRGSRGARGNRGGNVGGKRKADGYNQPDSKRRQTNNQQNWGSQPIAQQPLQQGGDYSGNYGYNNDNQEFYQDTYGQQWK
The note with it: PNA strand, Cys-Bpa at N-term, Lys-amide at C-term, disulfide to TP10; protein in cells.

The target in series [24] is splicing factor Prp8 (UniProt G3V6H2). The note with it: PNA strand, Cys-Bpa at N-term, Lys-amide at C-term, disulfide to TP10; protein in cells.

The exact form of at least one protein or probe is not confirmed. Where cells or extracts were used, other partners may take part. For some assays here: No signal at the amounts used counts as a negative. For some assays here: Protein sequences can lack the tags named with them.

In the case of “TACGAAACCTCTAAATCAAGG [Ank mRNA 3' region with annealed Ank 1 PNA]”, the binding result in series [1] is recorded as “binds”; in [2] it was “binds”; in series [3] it was “binds”; in [4] (found only with Ank 2 and Ank 3 PNA), “no binding”; in series [5] it was “binds”; in series [6] it was “binds”. Also, the binding result in series [7], in series [8], in series [9], in [10], in series [11] and in series [12] was “binds” in each case. Further, the binding result in [13], in series [14], in series [15], in series [16], in [17] and in [18] was “binds” throughout. Moreover, the binding result in series [19] is “binds”.

Take “AAGCGCGGCTGCTCTAGCAGAA [Ank mRNA 5'-UTR region with annealed Ank 3 PNA]”: the binding result in [20], in series [2], in series [4], in [7], in series [10] and in series [11] was “binds” throughout. Besides, the binding result in [14] was “binds”; in series [21], “binds”; in [18] (found only with Ank 1 PNA) it was “no binding”; in series [19], “binds”.

“AAACCTCTAAATCAAGGCCTC [Ank mRNA 3' region with annealed Ank 2 PNA]”: the binding result in [20], in series [22], in series [2], in series [4], in series [23] and in [5] was “binds” throughout. The binding result is reported as “binds” in [15], “binds” in [24] and “no binding” in series [18] (found only with Ank 1 PNA).

Values taken from patent US20080199854.
